Results on 1 substance are retold here after PMC12225533.

Chains of the proteins cited; added tags and fusions are not shown.
UniProt Q86WI3: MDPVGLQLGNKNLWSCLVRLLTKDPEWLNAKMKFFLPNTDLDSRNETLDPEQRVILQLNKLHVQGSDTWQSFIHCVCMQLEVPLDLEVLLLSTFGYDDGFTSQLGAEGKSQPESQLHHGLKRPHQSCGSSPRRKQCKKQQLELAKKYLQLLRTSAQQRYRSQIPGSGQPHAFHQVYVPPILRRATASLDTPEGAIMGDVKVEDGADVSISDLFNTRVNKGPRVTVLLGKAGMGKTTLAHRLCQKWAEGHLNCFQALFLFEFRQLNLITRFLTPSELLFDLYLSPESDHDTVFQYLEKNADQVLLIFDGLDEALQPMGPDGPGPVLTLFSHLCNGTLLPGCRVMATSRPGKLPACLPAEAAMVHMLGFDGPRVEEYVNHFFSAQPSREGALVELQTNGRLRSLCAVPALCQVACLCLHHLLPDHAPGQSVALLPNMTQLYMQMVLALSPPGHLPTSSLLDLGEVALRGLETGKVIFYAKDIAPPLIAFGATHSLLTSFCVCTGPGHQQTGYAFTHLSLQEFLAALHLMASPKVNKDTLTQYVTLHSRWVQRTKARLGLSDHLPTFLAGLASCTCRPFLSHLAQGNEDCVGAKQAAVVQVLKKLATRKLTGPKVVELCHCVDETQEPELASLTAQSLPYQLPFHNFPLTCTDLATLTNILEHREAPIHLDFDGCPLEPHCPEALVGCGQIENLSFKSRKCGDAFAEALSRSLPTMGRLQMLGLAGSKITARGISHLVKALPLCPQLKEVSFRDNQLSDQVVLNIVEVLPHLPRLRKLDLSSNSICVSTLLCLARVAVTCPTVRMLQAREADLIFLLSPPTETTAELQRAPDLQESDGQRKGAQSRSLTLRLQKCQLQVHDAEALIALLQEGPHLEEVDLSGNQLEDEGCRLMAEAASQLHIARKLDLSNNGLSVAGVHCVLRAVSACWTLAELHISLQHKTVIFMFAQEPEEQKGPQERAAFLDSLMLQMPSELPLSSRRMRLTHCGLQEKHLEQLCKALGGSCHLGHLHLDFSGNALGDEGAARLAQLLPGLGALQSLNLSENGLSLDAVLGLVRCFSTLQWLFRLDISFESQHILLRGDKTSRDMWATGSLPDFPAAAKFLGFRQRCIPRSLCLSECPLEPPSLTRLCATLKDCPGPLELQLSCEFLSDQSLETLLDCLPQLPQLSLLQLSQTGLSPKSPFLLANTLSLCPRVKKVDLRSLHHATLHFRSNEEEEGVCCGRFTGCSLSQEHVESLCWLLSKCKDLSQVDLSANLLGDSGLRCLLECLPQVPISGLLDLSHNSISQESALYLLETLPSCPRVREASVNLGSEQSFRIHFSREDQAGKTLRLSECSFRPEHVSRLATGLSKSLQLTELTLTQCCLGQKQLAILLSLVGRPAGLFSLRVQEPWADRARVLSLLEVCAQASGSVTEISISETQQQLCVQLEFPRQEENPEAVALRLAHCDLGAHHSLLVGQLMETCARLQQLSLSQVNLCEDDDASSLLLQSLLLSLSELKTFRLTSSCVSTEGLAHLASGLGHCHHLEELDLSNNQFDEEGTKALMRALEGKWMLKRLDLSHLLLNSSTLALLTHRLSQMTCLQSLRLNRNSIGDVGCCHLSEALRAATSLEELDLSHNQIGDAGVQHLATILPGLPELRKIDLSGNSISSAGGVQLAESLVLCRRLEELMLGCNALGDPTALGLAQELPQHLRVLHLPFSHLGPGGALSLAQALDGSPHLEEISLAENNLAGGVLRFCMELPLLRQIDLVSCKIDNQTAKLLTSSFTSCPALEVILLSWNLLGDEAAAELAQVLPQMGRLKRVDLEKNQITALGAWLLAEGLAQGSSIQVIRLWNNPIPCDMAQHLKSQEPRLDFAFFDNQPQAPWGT
UniProt Q01628: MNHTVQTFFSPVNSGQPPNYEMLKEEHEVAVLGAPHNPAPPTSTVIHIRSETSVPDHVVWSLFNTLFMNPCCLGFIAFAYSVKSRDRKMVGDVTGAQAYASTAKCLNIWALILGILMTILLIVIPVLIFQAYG

Results are given in words; binding and its absence hold for the method and conditions named. Binding seen in cells or lysates may run through a third protein. Some entries that bind do so weakly or less than the wild type.

The target of this assay is NLRC5 (UniProt Q86WI3). The assay can be described thus: co-IP; antibodies (4 µg) or IgG controls on mixed Dynabeads A and G; sonicated NP40 lysates of NCI-H446 and NCI-H69 cells; overnight at 4 °C; five washes with NP40 buffer; western blot. For orientation: Immunoblotting shows a protein as a band on a membrane.

Consider “interferon-induced transmembrane protein 3 (from UniProt Q01628 1-133)”, for which the binding entry is “binds”.
